In all, about 33,000 sequences were measured (“E-score (-0.5 to 0.5)”: median about -0.0059, highest 2% from about 0.26 on). This is one part of the list.
biological target: T1, Cin5 (UniProt P40917); assay: PBM E-score (8-mer binding enrichment) (E-score (-0.5 to 0.5)); higher = stronger / more preferred TF binding; conditions: protein concentration: 100 nM; construct: GST-full length
T1 sequence: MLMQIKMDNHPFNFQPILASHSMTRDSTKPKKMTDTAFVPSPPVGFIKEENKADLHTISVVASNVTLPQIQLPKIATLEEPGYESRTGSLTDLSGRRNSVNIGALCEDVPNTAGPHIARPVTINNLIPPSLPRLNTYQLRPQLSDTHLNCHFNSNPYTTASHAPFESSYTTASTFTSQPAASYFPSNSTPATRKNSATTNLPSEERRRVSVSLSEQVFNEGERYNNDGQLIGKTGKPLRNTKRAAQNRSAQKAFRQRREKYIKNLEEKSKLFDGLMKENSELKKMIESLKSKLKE
Method in brief: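 For each ungapped eight-base word taken together with its reverse complement, the Universal PBM Analysis Suite assigned an E-score. Binding data came from GST-tagged yeast transcription factors, applied at about 100-200 nM, on universal all-10-mer Agilent arrays made double-stranded by primer extension. Fluorescent anti-GST marked bound protein, and scans were normalised with masliner.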

| Sequence | PBM E-score |
| --- | --- |
| CCTTATGC | 0.0538 |
| GCGGCGGA | -0.068 |
| TCTTACCA | -0.0191 |
| TGCATTAA | 0.0889 |
| AGGGACGA | -0.132 |
| CAAGTAGA | 0.00811 |
| CCGGCAAC | -0.102 |
| CTAGGAAA | -0.0194 |
| CAGGGGGG | -0.5 |
| AGCTATTG | 0.01 |
| CCTACCGC | -0.217 |
| AGGTGTTC | -0.0429 |
| ATGTCGCA | 0.0675 |
| CAGAGGGA | -0.285 |
| AGTCGTTG | -0.206 |
| ATACGCGC | 0.112 |
| CGGAACAC | 0.177 |
| AAGAAGAA | 0.0684 |
| GCGATATA | 0.186 |
| ACTTCCTG | -0.00107 |
| CGATGCAG | 0.00604 |
| GAATCAAA | 0.142 |
| ATACTTAC | 0.123 |
| TAATGCCA | 0.17 |
| GCCTCAAC | -0.161 |

| Sequence | PBM E-score |
| --- | --- |
| ACTTATCA | 0.0834 |
| ATAAGGGG | -0.0144 |
| TAGACACA | -0.214 |
| AGTTGTCA | 0.164 |
| TCTATCCA | -0.0429 |
| TCCTCGCA | -0.148 |
| CAAAGATG | 0.0671 |
| CCATCCTC | -0.0966 |
| AGTCCTGG | -0.265 |
| AACTTTGA | -0.0127 |
| AGGAAAGA | -0.0533 |
| ACCCGTCG | -0.229 |
| AGCACTCG | -0.125 |
| CGCATCTC | -0.00049 |
| ACGGATAA | 0.217 |
| CCACTTCC | 0.00019 |
| ATCAAGAC | 0.0454 |
| AGTTTGAC | 0.0475 |
| GACCCATC | -0.0756 |
| GAAACACA | -0.0441 |
| CGCGGAAA | 0.076 |
| CAGCGACA | -0.141 |
| CGCAGAAC | -0.03 |
| CTGCTGCA | -0.031 |
| CATTTCGG | -0.078 |

| Sequence | PBM E-score |
| --- | --- |
| CTCTACGA | -0.111 |
| TACATAGA | 0.151 |
| AGCCTCCG | -0.212 |
| CCACGCTA | -0.101 |
| CAGTGTCA | 0.00366 |
| ACAGGTTG | -0.119 |
| CCGTTTCA | 0.00209 |
| GATACTAA | 0.184 |
| AAGTCATA | 0.187 |
| GATTGGAA | -0.0265 |
| AACCGGCG | 0.0766 |
| GTCTCACA | -0.0506 |
| AGAGGGGA | -0.218 |
| ATGGAAAG | 0.168 |
| GCAACCGC | -0.0187 |
| ACGCAAGA | 0.0353 |
| TCCTCAAA | -0.246 |
| CGCTCCCC | -0.372 |
| AGGGTAAT | 0.098 |
| ACGATTCA | -0.0333 |
| GGCCGACC | -0.211 |
| TATGCAAA | 0.0291 |
| AAATGCTA | 0.124 |
| AACGGGCA | -0.109 |
| AGAATATA | 0.105 |

| Sequence | PBM E-score |
| --- | --- |
| AATGCATC | 0.148 |
| AAAAAGCT | -0.179 |
| CTCACTAC | 0.0475 |
| AATTAGAG | 0.146 |
| CCTCGTCA | 0.00446 |
| ACTCAGTG | -0.154 |
| CCCTGTAA | 0.0657 |
| CTAGTTGA | 0.211 |
| CAGCTTGA | 0.0482 |
| AGTCTAAG | 0.157 |
| GCAGTTCC | -0.0186 |
| AGTACATA | 0.155 |
| ATTCTCAA | 0.184 |
| AGGTTAAA | 0.0293 |
| ACACAGAC | 0.0456 |
| CGAGGGCG | -0.182 |
| ATATATGG | 0.24 |
| ACCATATC | 0.196 |
| CGTAATCC | 0.383 |
| GAGAGACA | -0.0721 |
| ACTGTACC | -0.0653 |
| AGCCGCAG | -0.188 |
| GTCTGCAA | -0.163 |
| ATTGTCAG | 0.104 |
| AGCGACCC | -0.221 |

| Sequence | PBM E-score |
| --- | --- |
| AGGGGATC | 0.069 |
| AGATAAGG | -0.0472 |
| ACAAGCCT | -0.147 |
| AGGTATAT | 0.193 |
| TAGTGACA | 0.168 |
| GGTAGCTA | -0.238 |
| CTAAGGTA | 0.131 |
| ACTTGTCC | 0.0975 |
| ATTAGCGA | 0.108 |
| ATTACATC | 0.31 |
| CACTGGCA | -0.0699 |
| CGGAGGCC | -0.278 |
| CTATTGAA | 0.0131 |
| TCATACAA | 0.203 |
| CCAGCTCG | -0.101 |
| ATATTCTG | 0.126 |
| CTTACGCA | 0.107 |
| AATACGTC | 0.181 |
| AAGCATTC | 0.189 |
| ATTCCGAG | 0.182 |
| CGGGGACC | -0.107 |
| TTAAGTAA | 0.423 |
| CTAAGGAC | -0.149 |
| GACAAAAC | 0.172 |
| ATTTATGC | 0.121 |

| Sequence | PBM E-score |
| --- | --- |
| AATCGTCT | 0.0498 |
| AGACTACA | -0.00466 |
| CAGGTTCG | -0.0082 |
| ACGCTTAG | 0.0472 |
| AGGCGTCA | -0.199 |
| AGTGTATG | 0.0437 |
| AGTGCCAG | -0.217 |
| ACGTAGTA | 0.037 |
| ACGGGCGA | -0.125 |
| ACTGATGG | -0.0587 |
| ACAGGTGC | -0.138 |
| CACGAAGA | 0.132 |
| ATGTCATC | 0.142 |
| CAACAGCC | 0.0168 |
| CCGGTACA | -0.00292 |
| AGCCTACA | -0.13 |
| ACCGTGAA | -0.102 |
| AGGGCATG | -0.231 |
| GGGCCTGA | -0.351 |
| CACTCGCC | 0.0335 |
| GGGGCGCA | -0.162 |
| ACACGCTC | -0.00365 |
| CAGACTCG | -0.177 |
| ACATTGAA | 0.0676 |
| ATCTAGCC | -0.0446 |

In a second layout: results already given
CAACAGCC
  PBM E-score = 0.0168
CCGGTACA
  PBM E-score = -0.00292
AGCCTACA
  PBM E-score = -0.13
ACCGTGAA
  PBM E-score = -0.102

Further records

| Sequence | PBM E-score |
| --- | --- |
| ACCTCAGC | 0.0198 |
| CCGCACCG | -0.0359 |
| ATTAGCTC | 0.0538 |
| ATAACCTA | 0.111 |
| CTTGCCGA | -0.106 |
| AATATGAG | 0.0321 |
| ATCTTCAA | 0.141 |
| AAGGAATG | 0.0694 |
| CGTACAGA | -0.12 |
| GACGAATA | 0.174 |
| AACGCGCG | 0.276 |
| CTCCGGAC | -0.0821 |
| GACGGTCA | -0.245 |
| GGTCTCGA | -0.0648 |
| ACCGAGGC | -0.231 |
| GGCAGCGA | -0.277 |
| GGGATACA | 0.0204 |
| ATGGAAAT | 0.151 |
| CCCCTAGA | -0.0639 |
| AGAAATCA | 0.138 |
| CCACACAC | 0.0084 |
| CGACGGAA | 0.152 |
| GCGAGGAC | -0.224 |
| GTCACAAC | -0.0318 |
| AGTTCATA | 0.156 |

| Sequence | PBM E-score |
| --- | --- |
| CTTGCTTC | -0.073 |
| AAGCACCG | -0.0883 |
| ATAGGGAT | 0.13 |
| CACTGGAC | 0.0102 |
| GCGCCTGA | 0.117 |
| ACAACAAA | 0.102 |
| CCTCGGCA | -0.159 |
| CTCTGGAA | -0.0651 |
| TCCCGGGA | 0.242 |
| ACTACTTA | 0.1 |
| CCGAGATA | 0.109 |
| CGAGCAAA | -0.0426 |
| AAACCGCG | 0.265 |
| GGCCAGAA | 0.0816 |
| CGCTTCGA | -0.0283 |
| CAGACGAA | 0.286 |
| GACAGATA | 0.178 |
| GTCATTAA | 0.279 |
| CAGCTACG | -0.288 |
| CATGCTTC | 0.0417 |
| CGCGGTCC | -0.0882 |
| AAATGAAC | 0.072 |
| CAACGGCA | -0.106 |
| GGCAGTTA | -0.0543 |
| GATCGCAA | 0.158 |

Some of the entries above in a different format.
TCCCGGGA
  PBM E-score: 0.242
CAACGGCA
  PBM E-score: -0.106
GATCGCAA
  PBM E-score: 0.158

Next part:

| Sequence | PBM E-score |
| --- | --- |
| GCCACGTA | -0.0483 |
| GGGAAATA | 0.0795 |
| CTATCTGC | -0.0751 |
| CCCGCAGC | -0.133 |
| AACTATGA | 0.173 |
| GAACGTCC | -0.00592 |
| TAGAAAAA | 0.0442 |
| ATGGTAAC | 0.217 |
| CCATCGAC | 0.00486 |
| AGGATAAC | 0.0753 |
| ATCGATAC | 0.201 |
| AGGCCATA | -0.0731 |
| ACTTAGTG | -0.0686 |
| AGTGATGG | -0.0654 |
| CACCTGGG | -0.231 |
| AGCCACGA | -0.0686 |
| GTTGGTTA | 0.108 |
| AGTCTTAT | 0.158 |
| AGTTTACG | 0.15 |

From the supplement of paper PMC3334620
